Test results taken from the supplement of paper PMC6411743.
± gives the standard deviation of the averaged measurements. The list shows a part of the results, in another mix than the full data. Most entries show no effect beyond the scatter of the controls.

Chains of the proteins cited; added tags and fusions are not shown. Lines headed by an entry give the natural chain unless they say otherwise; changes in a name come on top.
UniProt Q14141: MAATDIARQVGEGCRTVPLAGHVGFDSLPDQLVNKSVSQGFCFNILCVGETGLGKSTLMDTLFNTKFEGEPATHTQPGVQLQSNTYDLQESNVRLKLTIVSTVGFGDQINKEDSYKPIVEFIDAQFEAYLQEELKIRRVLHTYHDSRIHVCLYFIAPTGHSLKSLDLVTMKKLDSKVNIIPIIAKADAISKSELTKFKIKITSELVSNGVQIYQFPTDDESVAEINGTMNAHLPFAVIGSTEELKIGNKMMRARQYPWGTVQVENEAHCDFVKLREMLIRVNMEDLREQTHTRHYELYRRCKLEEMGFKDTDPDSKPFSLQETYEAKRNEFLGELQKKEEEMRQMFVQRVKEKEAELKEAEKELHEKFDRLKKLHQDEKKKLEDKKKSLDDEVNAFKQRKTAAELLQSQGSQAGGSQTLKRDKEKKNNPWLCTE
UniProt Q12834, whole entry: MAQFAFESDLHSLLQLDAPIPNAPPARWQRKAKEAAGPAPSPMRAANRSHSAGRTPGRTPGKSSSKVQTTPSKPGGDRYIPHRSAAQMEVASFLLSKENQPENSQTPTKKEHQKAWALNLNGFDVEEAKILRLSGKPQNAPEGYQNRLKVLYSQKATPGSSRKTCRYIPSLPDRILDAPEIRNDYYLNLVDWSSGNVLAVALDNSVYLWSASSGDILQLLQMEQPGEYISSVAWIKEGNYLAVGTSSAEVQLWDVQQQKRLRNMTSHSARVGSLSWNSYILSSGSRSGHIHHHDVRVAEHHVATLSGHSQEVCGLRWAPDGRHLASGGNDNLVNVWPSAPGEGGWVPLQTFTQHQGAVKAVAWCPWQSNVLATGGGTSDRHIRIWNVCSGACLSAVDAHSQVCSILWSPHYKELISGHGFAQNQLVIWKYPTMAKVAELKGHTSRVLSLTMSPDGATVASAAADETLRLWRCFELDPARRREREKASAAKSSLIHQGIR
UniProt Q08431: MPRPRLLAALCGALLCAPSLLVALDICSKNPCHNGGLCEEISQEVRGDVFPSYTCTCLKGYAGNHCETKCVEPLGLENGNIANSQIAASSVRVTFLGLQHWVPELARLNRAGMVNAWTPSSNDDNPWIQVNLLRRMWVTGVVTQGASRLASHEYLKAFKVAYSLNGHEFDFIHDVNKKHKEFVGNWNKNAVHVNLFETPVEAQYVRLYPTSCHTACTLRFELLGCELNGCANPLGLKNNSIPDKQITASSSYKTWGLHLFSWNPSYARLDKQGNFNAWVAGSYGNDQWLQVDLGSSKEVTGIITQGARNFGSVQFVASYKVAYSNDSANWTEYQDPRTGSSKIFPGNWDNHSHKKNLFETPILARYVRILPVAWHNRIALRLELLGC
UniProt Q13151: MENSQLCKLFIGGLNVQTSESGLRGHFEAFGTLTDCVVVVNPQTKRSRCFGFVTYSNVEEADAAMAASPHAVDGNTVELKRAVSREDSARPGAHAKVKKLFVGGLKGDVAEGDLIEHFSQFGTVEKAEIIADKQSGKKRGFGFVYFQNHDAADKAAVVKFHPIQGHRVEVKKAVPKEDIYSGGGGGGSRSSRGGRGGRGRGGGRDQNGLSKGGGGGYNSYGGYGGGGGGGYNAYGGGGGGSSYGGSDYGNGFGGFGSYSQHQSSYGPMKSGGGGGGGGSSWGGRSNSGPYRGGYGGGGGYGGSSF
UniProt Q02809: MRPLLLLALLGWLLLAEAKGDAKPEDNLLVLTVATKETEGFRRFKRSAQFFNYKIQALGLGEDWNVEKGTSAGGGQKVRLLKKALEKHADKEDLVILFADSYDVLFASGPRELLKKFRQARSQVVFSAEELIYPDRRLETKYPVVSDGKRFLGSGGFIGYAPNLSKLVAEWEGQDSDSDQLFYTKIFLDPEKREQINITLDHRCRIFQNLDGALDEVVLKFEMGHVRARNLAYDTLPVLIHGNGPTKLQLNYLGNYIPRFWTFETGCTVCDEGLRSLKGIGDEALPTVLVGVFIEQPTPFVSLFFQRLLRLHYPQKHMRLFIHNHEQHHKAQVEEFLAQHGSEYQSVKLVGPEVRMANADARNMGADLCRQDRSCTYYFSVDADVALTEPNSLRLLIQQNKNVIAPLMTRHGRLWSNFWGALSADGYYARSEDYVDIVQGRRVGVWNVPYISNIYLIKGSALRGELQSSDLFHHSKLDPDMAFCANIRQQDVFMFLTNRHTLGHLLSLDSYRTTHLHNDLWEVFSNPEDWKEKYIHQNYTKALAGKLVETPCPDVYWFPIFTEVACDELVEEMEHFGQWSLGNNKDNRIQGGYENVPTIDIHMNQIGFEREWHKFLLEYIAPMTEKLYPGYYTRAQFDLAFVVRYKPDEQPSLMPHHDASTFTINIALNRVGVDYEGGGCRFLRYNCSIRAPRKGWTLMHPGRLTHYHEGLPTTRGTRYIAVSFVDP
UniProt Q13277: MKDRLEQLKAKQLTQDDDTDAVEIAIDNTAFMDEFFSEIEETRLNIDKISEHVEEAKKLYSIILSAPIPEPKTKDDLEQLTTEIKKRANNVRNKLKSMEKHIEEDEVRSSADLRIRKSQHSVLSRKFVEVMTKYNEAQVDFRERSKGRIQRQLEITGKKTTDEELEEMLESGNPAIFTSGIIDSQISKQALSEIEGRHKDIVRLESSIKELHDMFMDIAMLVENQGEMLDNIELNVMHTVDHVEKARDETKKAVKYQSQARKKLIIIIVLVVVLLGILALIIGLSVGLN
UniProt Q13884: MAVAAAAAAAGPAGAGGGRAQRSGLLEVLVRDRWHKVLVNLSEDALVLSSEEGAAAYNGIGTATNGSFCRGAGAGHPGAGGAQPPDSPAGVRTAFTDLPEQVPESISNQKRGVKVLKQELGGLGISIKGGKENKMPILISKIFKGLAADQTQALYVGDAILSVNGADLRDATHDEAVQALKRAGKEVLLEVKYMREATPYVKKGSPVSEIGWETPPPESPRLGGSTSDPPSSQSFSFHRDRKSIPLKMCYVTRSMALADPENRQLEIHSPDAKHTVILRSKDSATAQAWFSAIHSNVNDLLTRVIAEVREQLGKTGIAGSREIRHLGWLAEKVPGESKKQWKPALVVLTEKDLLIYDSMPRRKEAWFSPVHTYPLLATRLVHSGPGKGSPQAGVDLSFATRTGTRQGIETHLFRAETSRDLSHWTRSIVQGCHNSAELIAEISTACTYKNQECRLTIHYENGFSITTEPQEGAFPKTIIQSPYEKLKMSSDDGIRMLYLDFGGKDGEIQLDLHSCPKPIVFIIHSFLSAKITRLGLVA
UniProt Q06945: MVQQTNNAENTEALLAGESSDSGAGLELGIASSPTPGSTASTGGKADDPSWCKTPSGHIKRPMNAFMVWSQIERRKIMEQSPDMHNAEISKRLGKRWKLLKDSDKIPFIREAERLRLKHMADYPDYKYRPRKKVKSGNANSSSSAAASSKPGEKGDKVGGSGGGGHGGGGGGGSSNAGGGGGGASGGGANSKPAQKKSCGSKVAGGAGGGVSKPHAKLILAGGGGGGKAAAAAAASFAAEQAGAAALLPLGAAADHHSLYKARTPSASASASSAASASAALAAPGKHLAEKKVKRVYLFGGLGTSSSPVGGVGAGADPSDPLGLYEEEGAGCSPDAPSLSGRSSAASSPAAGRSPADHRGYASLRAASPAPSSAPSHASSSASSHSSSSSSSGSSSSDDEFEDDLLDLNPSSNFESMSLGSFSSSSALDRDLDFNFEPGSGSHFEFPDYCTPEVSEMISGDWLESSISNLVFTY
UniProt Q13426: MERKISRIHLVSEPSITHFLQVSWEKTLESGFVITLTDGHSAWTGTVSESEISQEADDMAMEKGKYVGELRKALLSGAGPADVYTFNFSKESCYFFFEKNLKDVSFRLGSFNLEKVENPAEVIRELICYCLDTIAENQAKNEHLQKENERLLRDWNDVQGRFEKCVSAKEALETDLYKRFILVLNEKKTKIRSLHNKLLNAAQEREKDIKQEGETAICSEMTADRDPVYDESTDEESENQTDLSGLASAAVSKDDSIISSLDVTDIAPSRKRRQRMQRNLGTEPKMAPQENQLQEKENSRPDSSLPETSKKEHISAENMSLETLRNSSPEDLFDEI
UniProt Q12899: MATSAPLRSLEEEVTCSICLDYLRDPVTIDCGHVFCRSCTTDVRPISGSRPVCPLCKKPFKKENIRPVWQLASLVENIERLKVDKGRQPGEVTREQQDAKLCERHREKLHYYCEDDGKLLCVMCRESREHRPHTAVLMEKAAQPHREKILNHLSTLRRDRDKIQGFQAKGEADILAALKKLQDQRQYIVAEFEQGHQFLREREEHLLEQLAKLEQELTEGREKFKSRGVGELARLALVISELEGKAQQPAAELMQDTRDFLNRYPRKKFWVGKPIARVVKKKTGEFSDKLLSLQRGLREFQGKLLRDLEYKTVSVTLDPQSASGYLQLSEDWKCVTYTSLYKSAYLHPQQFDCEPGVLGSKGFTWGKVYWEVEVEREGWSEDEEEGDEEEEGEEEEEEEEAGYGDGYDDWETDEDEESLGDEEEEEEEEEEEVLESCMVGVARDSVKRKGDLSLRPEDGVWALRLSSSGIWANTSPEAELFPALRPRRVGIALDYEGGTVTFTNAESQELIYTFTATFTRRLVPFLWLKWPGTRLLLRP
UniProt Q06546: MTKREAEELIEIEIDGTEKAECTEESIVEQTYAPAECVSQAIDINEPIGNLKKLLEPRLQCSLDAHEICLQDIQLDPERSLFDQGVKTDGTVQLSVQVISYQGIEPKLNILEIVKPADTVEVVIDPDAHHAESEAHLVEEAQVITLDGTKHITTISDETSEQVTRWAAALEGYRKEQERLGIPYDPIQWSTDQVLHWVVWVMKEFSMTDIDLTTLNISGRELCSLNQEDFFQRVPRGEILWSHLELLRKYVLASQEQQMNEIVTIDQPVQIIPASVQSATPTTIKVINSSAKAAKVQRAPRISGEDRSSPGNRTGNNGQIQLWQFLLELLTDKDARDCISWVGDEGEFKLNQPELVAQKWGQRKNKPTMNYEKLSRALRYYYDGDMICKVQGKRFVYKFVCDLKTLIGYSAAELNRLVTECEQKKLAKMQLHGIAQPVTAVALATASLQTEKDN
UniProt Q13433: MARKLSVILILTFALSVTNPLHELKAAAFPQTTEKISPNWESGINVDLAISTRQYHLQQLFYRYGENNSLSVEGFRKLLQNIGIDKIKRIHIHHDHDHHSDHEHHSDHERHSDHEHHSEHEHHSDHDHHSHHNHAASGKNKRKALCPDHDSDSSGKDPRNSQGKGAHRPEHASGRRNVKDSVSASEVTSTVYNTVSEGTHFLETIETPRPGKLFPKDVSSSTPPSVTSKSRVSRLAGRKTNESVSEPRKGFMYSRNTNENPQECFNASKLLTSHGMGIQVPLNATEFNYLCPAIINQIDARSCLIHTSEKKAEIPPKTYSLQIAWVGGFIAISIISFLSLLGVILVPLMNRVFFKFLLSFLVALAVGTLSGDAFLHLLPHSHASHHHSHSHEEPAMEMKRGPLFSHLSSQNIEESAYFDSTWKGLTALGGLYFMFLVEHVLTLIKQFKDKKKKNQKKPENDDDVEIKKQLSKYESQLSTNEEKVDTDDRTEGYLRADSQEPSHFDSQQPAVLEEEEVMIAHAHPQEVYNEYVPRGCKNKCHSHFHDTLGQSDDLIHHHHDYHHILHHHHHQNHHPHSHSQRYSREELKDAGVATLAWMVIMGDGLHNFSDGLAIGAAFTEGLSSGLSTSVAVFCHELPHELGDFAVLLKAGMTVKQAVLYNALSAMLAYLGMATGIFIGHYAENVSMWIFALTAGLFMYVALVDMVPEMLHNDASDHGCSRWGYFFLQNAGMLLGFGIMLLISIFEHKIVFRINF
UniProt Q08945, whole entry: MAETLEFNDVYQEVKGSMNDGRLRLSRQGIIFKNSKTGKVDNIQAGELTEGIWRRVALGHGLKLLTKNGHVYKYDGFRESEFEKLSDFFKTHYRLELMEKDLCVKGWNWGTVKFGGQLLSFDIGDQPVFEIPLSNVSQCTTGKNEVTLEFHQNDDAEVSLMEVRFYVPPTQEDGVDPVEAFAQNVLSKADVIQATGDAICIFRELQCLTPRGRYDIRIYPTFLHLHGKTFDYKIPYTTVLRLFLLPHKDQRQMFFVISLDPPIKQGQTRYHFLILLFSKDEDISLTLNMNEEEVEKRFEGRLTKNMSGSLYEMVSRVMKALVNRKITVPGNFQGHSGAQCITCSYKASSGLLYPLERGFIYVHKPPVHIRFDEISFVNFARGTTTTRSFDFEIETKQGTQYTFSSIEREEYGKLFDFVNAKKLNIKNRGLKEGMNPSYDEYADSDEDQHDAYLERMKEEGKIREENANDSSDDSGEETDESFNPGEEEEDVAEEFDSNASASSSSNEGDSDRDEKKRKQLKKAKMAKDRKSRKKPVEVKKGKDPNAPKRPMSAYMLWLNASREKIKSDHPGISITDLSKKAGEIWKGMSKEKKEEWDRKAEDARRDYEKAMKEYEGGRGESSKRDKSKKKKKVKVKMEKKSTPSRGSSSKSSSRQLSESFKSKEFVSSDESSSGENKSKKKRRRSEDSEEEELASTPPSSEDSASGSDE

Compound: Nc1ncnc2c1ncn2[C@@H]1O[C@H](COP(=O)(O)OP(=O)(O)OP(=O)(O)O)[C@@H](O)[C@H]1O [adenosine triphosphate]
Assay: NP40-soluble protein abundance relative to vehicle (solubility fold change) (ratio); higher = more soluble protein in presence of ATP
Conditions: concentration: 0.1mM
How it was run: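 Each value is a fold change relative to the detergent-processed vehicle, calculated per replicate from vsn-normalised intensities. Jurkat crude lysate received eight concentrations (0.1 to 10 mM) for 10 min at room temperature and 3 min at 37 °C, then was solubilised in 0.8% NP40 with benzonase (60 min, 4 °C). The ultracentrifuged supernatant was TMT-labelled and run by LC-MS/MS in three independent experiments.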

**Q.** How did the NP40-soluble protein abundance turn out when “UniProt Q04726-3|Q04726-7|H0YKT5 and related entries” was run?
**A.** 1.02 ± 0.038

**Q.** With UniProt Q14141 as the target, how does the NP40-soluble protein abundance read?
**A.** 0.987 ± 0.042

**Q.** Which NP40-soluble protein abundance does the source give for CDC20 (UniProt Q12834) here?
**A.** 0.965 ± 0.06

**Q.** With MFGE8 (UniProt Q08431) as the target, how does the NP40-soluble protein abundance read?
**A.** 0.996 ± 0.04

**Q.** Which NP40-soluble protein abundance does the source give for UniProt Q02750 here?
**A.** 0.989 ± 0.02

**Q.** UniProt Q13029 and related entries was tested. Which NP40-soluble protein abundance did it give?
**A.** 1.06 ± 0.018

**Q.** HNRNPA0 (UniProt Q13151) was tested. Which NP40-soluble protein abundance did it give?
**A.** 1.014 ± 0.0077

**Q.** With UniProt Q02809 and related entries as the target, how does the NP40-soluble protein abundance read?
**A.** 1.05 ± 0.025

**Q.** With RPL6 (UniProt Q02878) as the target, how does the NP40-soluble protein abundance read?
**A.** 0.968 ± 0.069

**Q.** How did the NP40-soluble protein abundance turn out when UniProt Q13277 and related entries was run?
**A.** 1.02 ± 0.15

**Q.** For UniProt Q13884 and related entries, which NP40-soluble protein abundance is on record?
**A.** 0.999 ± 0.028

**Q.** Which NP40-soluble protein abundance does the source give for SOX4 (UniProt Q06945) here?
**A.** 0.947 ± 0.079

**Q.** With XRCC4 (UniProt Q13426) as the target, how does the NP40-soluble protein abundance read?
**A.** 0.992 ± 0.051

**Q.** Which NP40-soluble protein abundance does the source give for UniProt Q13416 here?
**A.** 0.979 ± 0.045

**Q.** How did the NP40-soluble protein abundance turn out when DHODH (UniProt Q02127) was run?
**A.** 1.05 ± 0.039

**Q.** For MGAT2 (UniProt Q10469), which NP40-soluble protein abundance is on record?
**A.** 1.05 ± 0.015

**Q.** For MBTD1 (UniProt Q05BQ5), which NP40-soluble protein abundance is on record?
**A.** 1.08 ± 0.18

**Q.** TAF10 (UniProt Q12962) was tested. Which NP40-soluble protein abundance did it give?
**A.** 1.09 ± 0.049

**Q.** TRIM26 (UniProt Q12899) was tested. Which NP40-soluble protein abundance did it give?
**A.** 0.969 ± 0.14

**Q.** For GABPA (UniProt Q06546), which NP40-soluble protein abundance is on record?
**A.** 1 ± 0.056

**Q.** How did the NP40-soluble protein abundance turn out when SLC39A6 (UniProt Q13433) was run?
**A.** 0.93 ± 0.029

**Q.** With SSRP1 (UniProt Q08945) as the target, how does the NP40-soluble protein abundance read?
**A.** 1 ± 0.013

**Q.** UniProt Q13905 and related entries was tested. Which NP40-soluble protein abundance did it give?
**A.** 1.02 ± 0.038

**Q.** For HSPA14 (UniProt Q0VDF9), which NP40-soluble protein abundance is on record?
**A.** 1.02 ± 0.051

**Q.** Which NP40-soluble protein abundance does the source give for PLAUR (UniProt Q03405) here?
**A.** 1.13 ± 0.13

**Q.** Which NP40-soluble protein abundance does the source give for SNTB2 (UniProt Q13425) here?
**A.** 1.05 ± 0.089

**Q.** Which NP40-soluble protein abundance does the source give for RIPK1 (UniProt Q13546) here?
**A.** 1.05 ± 0.054

**Q.** How did the NP40-soluble protein abundance turn out when DR1 (UniProt Q01658) was run?
**A.** 0.859 ± 0.22
